Data published in patent US20220072165A1, “RADIODRUG FOR DIAGNOSTIC/THERAPEUTIC USE IN NUCLEAR MEDICINE AND RADIO-GUIDED MEDICINE” (UNIVERSITÀ DEGLI STUDI DI ROMA "LA SAPIENZA", priority 2019, published 2022).
Some of these results come from one statement about several compounds together.

Assay: chemical stability in physiological conditions (PBS buffer, 37° C., analytical HPLC)
Format: physicochemical
Conditions: PBS buffer c=0.9 mg/ml, T=37° C., HPLC UV 214 nm
Protocol: The stability of the chelate ^89Y-DOTA-BG (1a, MC4324) (non-radioactive analogue of the compound of Formula II, 1 or MC4324) in physiological conditions has been evaluated by analysis with analytical HPLC (Shimadzu Nexera chromatograph equipped with a SPD-M20A PDA detector; Hypersil ODS GOLD 250×4.6 mm column; eluent: MeOH/H2O 5:95 v/v+0.02% TFA, flow: 1.0 ml/min; UV detection 214 nm) repeated at regular time intervals after having solubilized it in PBS buffer (c=0.9 mg/ml) and kept at T=37° C.
FIG. 2 depicts the HPLC plot relative to the compound ^89Y-DOTA-BG (1a) solubilized in PBS buffer (c=0.9 mg/ml) and at T=37° C. time t=0 min (A), t=21 hours (B) and t=5 days (C). […]

Structure (SMILES): N=C(N)NCc1cccc(C(=O)NCCCNC(=O)CN2CCN(CC(=O)[O-])CCN(CC(=O)[O-])CCN(CC(=O)[O-])CC2)c1.[89Y+3] [10a′]
- chemical purity after 5 days: higher than 99.5%
